Data reported in PMC5924763.

Target: T1, Flag-hnRNP F (UniProt P52597)
T1 sequence: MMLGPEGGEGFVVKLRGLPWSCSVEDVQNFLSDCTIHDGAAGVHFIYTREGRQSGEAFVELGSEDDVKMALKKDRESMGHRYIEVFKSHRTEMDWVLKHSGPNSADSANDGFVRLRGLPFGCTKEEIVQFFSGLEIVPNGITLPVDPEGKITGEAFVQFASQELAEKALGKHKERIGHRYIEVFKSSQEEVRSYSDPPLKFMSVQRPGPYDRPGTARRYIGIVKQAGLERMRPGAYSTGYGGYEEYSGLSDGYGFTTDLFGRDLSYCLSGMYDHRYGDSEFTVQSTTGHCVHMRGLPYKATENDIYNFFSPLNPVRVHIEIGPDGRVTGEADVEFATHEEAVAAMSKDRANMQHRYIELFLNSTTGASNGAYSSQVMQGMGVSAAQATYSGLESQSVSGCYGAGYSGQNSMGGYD
Test: affinity purification with mass spectrometry; cells transfected with Flag-ECD or Flag-hnRNP F (Flag vector as negative control) for 48 h; anti-Flag co-IP on protein A/G agarose, SDS-PAGE, silver stain, differential bands digested and analysed by nano-LC-MS/MS; cell line not stated

B1: ZFP91 (endogenous) (enzyme, UniProt Q96JP5 1-570)
chain: MPGETEEPRPPEQQDQEGGEAAKAAPEEPQQRPPEAVAAAPAGTTSSRVLRGGRDRGRAAAAAAAAAVSRRRKAEYPRRRRSSPSARPPDVPGQQPQAAKSPSPVQGKKSPRLLCIEKVTTDKDPKEEKEEEDDSALPQEVSIAASRPSRGWRSSRTSVSRHRDTENTRSSRSKTGSLQLICKSEPNTDQLDYDVGEEHQSPGGISSEEEEEEEEEMLISEEEIPFKDDPRDETYKPHLERETPKPRRKSGKVKEEKEKKEIKVEVEVEVKEEENEIREDEEPPRKRGRRRKDDKSPRLPKRRKKPPIQYVRCEMEGCGTVLAHPRYLQHHIKYQHLLKKKYVCPHPSCGRLFRLQKQLLRHAKHHTDQRDYICEYCARAFKSSHNLAVHRMIHTGEKPLQCEICGFTCRQKASLNWHMKKHDADSFYQFSCNICGKKFEKKDSVVAHKAKSHPEVLIAEALAANAGALITSTDILGTNPESLTQPSDGQGLPLLPEPLGNSTSGECLLLEAEGMSKSYCSGTERVSLMADGKIFVGSGSSGGTEGLVMNSDILGATTEVLIEDSDSAGP
binding: binds

No constants are given. Whether binding was seen depends on the method and setting. In cells and extracts the contact can be indirect. Here binding means that the protein was enriched with, or labelled near, the bait; the list need not be complete. Tags and fused reporters may be left off the sequences shown.
